Laboratory results published in PubChem BioAssay AID344 (DTP/NCI, 2004).
The list shows only some results of the screen, not a fair sample: it is rich in T/C values a quarter to a half above the control, in often repeated tests (any T/C) and in doses without a T/C. Further doses and runs are listed elsewhere. T/C: endpoint of the treated group in % of that of the vehicle group. Some doses have a count of surviving animals in place of a T/C: the source files T/C as zero there, which appears to mark a toxic dose or a test without result, not a measured value. Some survivor counts are full or nearly so, which does not show that the dose was tolerated: survival well below the control is almost never listed, so the zero probably covers shortened survival too. Survivors were counted at the toxicity check, usually on the fifth day, unless a day is given; later deaths do not show. Schedule codes are those of the source, taken here to give the interval after Q, in days (D) or hours (H), and the number of doses after X. For survival time, the PubChem record calls one and a half times the control and up active, and a quarter to a half above the control has no call in these data; cut-offs in other NCI protocols can differ. Some T/C values carry the count of animals alive at the toxicity check (mostly the fifth day); without a count, all were alive then.

System: mice, LPC-1 plasma cell tumor ip, median survival T/C
Experiment: NCI In Vivo Anticancer Drug Screen. Data for tumor model Lieberman Plasma Cell No. 1 (LPC-1) (intraperitoneal) in unknown mice
Conditions: T/C endpoint: median survival time, higher T/C = longer survival
Procedure: The antitumor activity of compounds was measured in mice bearing transplantable tumors. Survival or tumor size were measured and the results are expressed as the measurement made in the treated group (T) divided by the measurement made in the vehicle treated control group (C). The tumor model used in this assay is Lieberman Plasma Cell No. 1 (LPC-1) (intraperitoneal) in unknown mice

[1] = dose: 50.0 mg/kg/injection, schedule: Q01DX028 (sc), vehicle: carboxymethylcellulose (CMC)
[2] = dose: 75.0 mg/kg/injection, schedule: Q01DX028 (sc), vehicle: carboxymethylcellulose (CMC)

## O=NN(CCF)C(=O)NC1CCCCC1
dose: 22.0 mg/kg/injection, schedule: Q01DX028 (sc), vehicle: carboxymethylcellulose (CMC)
  T/C: 125 % of control [7 of 10 alive]
[1]
  survivor count: 5 of 10
[2]
  survivor count: 1 of 10

## COc1ccc2c(c1)C(C)=CC(C)(C)N2
dose: 100.0 mg/kg/injection, schedule: Q01DX028 (sc), vehicle: steroid suspending solution
  T/C: 132 % of control

## CCOC(=O)C(Cc1ccc(N(CCCl)CCCl)cc1)NC=O (stereo not given)
dose: 37.5 mg/kg/injection, schedule: Q01DX028 (sc), vehicle: carboxymethylcellulose (CMC)
  T/C: 130 % of control

## CCOC(=O)c1c[nH]c2ccc(N(CCCl)CCCl)cc12
dose: 14.0 mg/kg/injection, schedule: Q01DX015 (sc), vehicle: carboxymethylcellulose (CMC)
  T/C: 138 % of control [8 of 10 alive]
dose: 23.0 mg/kg/injection, schedule: Q01DX015 (sc), vehicle: carboxymethylcellulose (CMC)
  survivor count: 6 of 10
dose: 39.0 mg/kg/injection, schedule: Q01DX015 (sc), vehicle: carboxymethylcellulose (CMC)
  survivor count: 4 of 10
dose: 65.0 mg/kg/injection, schedule: Q01DX015 (sc), vehicle: carboxymethylcellulose (CMC)
  survivor count: 6 of 10
dose: 180.0 mg/kg/injection, schedule: Q01DX028 (sc), vehicle: carboxymethylcellulose (CMC)
  survivor count: 8 of 8

## Cn1cnc([N+](=O)[O-])c1Sc1nc(N)nc2nc[nH]c12
dose: 2.0 mg/kg/injection, schedule: Q01DX028 (sc), vehicle: carboxymethylcellulose (CMC)
  T/C: 142 % of control [9 of 10 alive]
dose: 3.0 mg/kg/injection, schedule: Q01DX028 (sc), vehicle: carboxymethylcellulose (CMC)
  T/C: 142 % of control [8 of 10 alive]

## CCC(CCC(C)C1CCC2C3CC=C4CC(OC(=O)CCC(=O)O)CCC4(C)C3CCC12C)C(C)C (stereo not given)
dose: 50.0 mg/kg/injection, schedule: Q01DX028 (sc), vehicle: water
  survivor count: 4 of 8
dose: 200.0 mg/kg/injection, schedule: Q01DX028 (sc), vehicle: water
  survivor count: 5 of 8

## CS(=O)(=O)OCCN(CCOS(C)(=O)=O)c1ccc(C=O)cc1
dose: 1.8 mg/kg/injection, schedule: Q01DX028 (sc), vehicle: saline
  T/C: 139 % of control

## COc1cc2oc(=O)ccc2cc1CC=C(C)C
dose: 12.5 mg/kg/injection, schedule: Q01DX028 (sc), vehicle: saline
  survivor count: 5 of 8
dose: 50.0 mg/kg/injection, schedule: Q01DX028 (sc), vehicle: saline
  survivor count: 4 of 8
dose: 100.0 mg/kg/injection, schedule: Q01DX028 (sc), vehicle: saline
  survivor count: 4 of 8

## S=C(N=Nc1ccccc1)NNc1ccccc1
dose: 25.0 mg/kg/injection, schedule: Q01DX028 (sc), vehicle: carboxymethylcellulose (CMC)
  survivor count: 6 of 10
[1]
  survivor count: 4 of 8
[2]
  survivor count: 6 of 10
dose: 100.0 mg/kg/injection, schedule: Q01DX028 (sc), vehicle: carboxymethylcellulose (CMC)
  survivor count: 4 of 10

## NC(Cc1ccc(N(CCCl)CCCl)cc1)C(=O)O (stereo not given)
dose: 0.5 mg/kg/injection, schedule: Q01DX028 (sc), vehicle: methylcellulose (MC)
  T/C: 129 % of control
dose: 1.0 mg/kg/injection, schedule: Q01DX028 (sc), vehicle: methylcellulose (MC)
  T/C: 148 % of control
dose: 16.0 mg/kg/injection, schedule: Q01DX028 (sc), vehicle: methylcellulose (MC)
  survivor count: 10 of 10
